In patent US8192854B2, “Microbial fuel cell treatment of ethanol fermentation process water” (priority 2009, dated 2012):

Columns and labels:
[1] = tested on: inhibitor-consuming microbial consortium in a microbial fuel cell (MFC-A); assay: Power density analysis of MFC with individual inhibitor as substrate, ferricyanide cathode
[2] = tested on: inhibitor-consuming microbial consortium in a microbial fuel cell (MFC-A); assay: Coulombic efficiency and HPLC analysis of inhibitor conversion in MFC; conditions: individual substrate in MFC
[3] = tested on: inhibitor-consuming microbial consortium in a microbial fuel cell (MFC-A); assay: Removal of inhibitor mixture during enrichment of consortium in MFC-A; conditions: mixture of 0.2 g/L 2-furfural, 0.1 g/L HB, 0.1 g/L HAP, 0.5 g/L VA added at time zero

Question: What does the source list for `O=Cc1ccco1` [2-furfural]?
Answer: volumetric power density ([1]; converted from area power density with anode specific surface area 79 m^2/m^3 and NAV 0.83): 332 W/m^3; maximum power density ([1]; substrate at 0.2 g/L, projected anode area): 3490 mW/m^2; coulombic efficiency (CE) [2]: 69 ±3%; degree of mineralization (coulombic efficiency and HPLC data) [2]: near complete mineralization; time of consumption of substrate [3]: 7 days
